PubChem BioAssay AID504764, Drosophila RNAi Screening Center | 2011

Test: 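Genes whose knock-down alters Notch-dependent transcription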 (primary screen)
Cells: Drosophila Kc167 cells
Reagent: long dsRNA against Drosophila genes
Timing: about 5 days (4 days dsRNA, then 24 h after transfection)
Treatment: transfection of constitutively active membrane-tethered Notch lacking the extracellular domain, read 24 h later
Read-out: 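Light from a Notch-responsive E(spl)m3 luciferase reporter under active Notch, with control-promoter and no-Notch reporter wells to normalise; raw counts from paired wells a and b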
Reading the numbers: induced reporter light, run 1, well a and induced reporter light, run 1, well b: higher = more light from the Notch target reporter with active Notch; control promoter light, run 1, well a and control promoter light, run 1, well b: higher = more light from the viral control promoter (cell number, transfection, viability); uninduced reporter light, run 1, well a: higher = more light from the Notch target reporter without active Notch
Rule for the call: 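Hit if the duplicate-averaged log2 ratio of induced to control-promoter light gives a plate-wise z beyond ±2, or induced to uninduced beyond ±1.8; weak-control or discordant-duplicate wells dropped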
Meaning of the calls: active = modifier hit (raised or lowered Notch signal); inactive = not a hit
The deposit covers about 22,000 reagents; below is a random part of those that have a named target and a result. Of all reagents, 403 (1.9%) are marked active. 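Unnormalised raw counts per well; ratio z-scores behind the hit calls and whether each hit raises or lowers signal are not deposited.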 Unmarked entries are inactive. The record does not give: the amount of reagent.

The first 2 records, ahead of the listing:
no.	Target gene	PubChem SID	induced reporter light, run 1, well a	induced reporter light, run 1, well b	control promoter light, run 1, well a	control promoter light, run 1, well b	uninduced reporter light, run 1, well a
1	COX5B	SID104181907	1.73e5	1.21e5	1.67e5	1.52e5	10210
2	sun	SID104199932	56520	47570	60930	45915	6670

The listing, from the first entry:
no.	Target gene	PubChem SID	induced reporter light, run 1, well a	induced reporter light, run 1, well b	control promoter light, run 1, well a	control promoter light, run 1, well b	uninduced reporter light, run 1, well a
1	COX5B	SID104181907	1.73e5	1.21e5	1.67e5	1.52e5	10210
2	sun	SID104199932	56520	47570	60930	45915	6670
3	CG15019	SID104188265	2.12e5	1.99e5	2.54e5	2.98e5	7645
4	Tom	SID104191098	1.86e5	1.62e5	1.06e5	1.24e5	11495
5	CG32547	SID104199055	1.55e5	99555	1.14e5	1.09e5	8570
6	CG32547	SID104199057	1.37e5	1.45e5	1.03e5	96030	8435
7	CG32547	SID104199266	85695	93015	1.00e5	86920	12405
8	CG32547	SID104199418	44970	47510	20085	15355	18515
9	CG32373	SID104188687	1.72e5	1.94e5	1.49e5	1.48e5	15140
10	Mekk1	SID104196094	2.02e5	2.54e5	2.84e5	3.49e5	16135
11	Mekk1	SID104196095	1.86e5	1.52e5	1.85e5	1.71e5	12030
12	Patj	SID104188504	1.32e5 (active)	1.52e5	1.98e5	1.46e5	8680
13	CG4282	SID104186657	87710	1.12e5	1.92e5	2.00e5	8695
14	Cyp4ac1	SID104183094	2.14e5	2.13e5	2.08e5	1.80e5	17570
15	CG10979	SID104191945	1.20e5	1.17e5	1.09e5	97805	8590
16	dnc	SID104197550	37090	36575	42950	42715	6065
17	dnc	SID104197551	83265	1.08e5	1.86e5	1.63e5	6835
18	dnc	SID104197703	85610	95965	1.34e5	1.63e5	7350
19	dnc	SID104198555	88580	68385	1.28e5	1.42e5	6435
20	dnc	SID104198556	1.67e5	1.35e5	2.42e5	2.59e5	9805
21	Cyp9f3	SID104196428	78150	65735	65180	49850	4745
22	VhaM9.7-a	SID104188081	1.34e5	1.48e5	3.03e5	1.69e5	11665
23	CG31612	SID104183489	56630	47490	53655	57980	2510
24	CG31612	SID104183490	33460	32255	41210	37150	2020
25	spartin	SID104191979	1.61e5	1.80e5	2.09e5	1.90e5	11615
26	Sfxn2	SID104190510	1.42e5	1.52e5	1.29e5	1.19e5	7915
27	cort	SID104181940	2.16e5	2.05e5	3.60e5	3.07e5	14610
28	Cmpk	SID104196435	1.75e5	1.82e5	2.53e5	2.72e5	10880
29	CG18368	SID104186523	1.12e5	1.06e5	1.53e5	1.36e5	8850
30	Akap200	SID104181656	2.08e5	2.10e5	3.01e5	2.60e5	15350
31	rush	SID104198360	2.00e5	1.79e5	2.43e5	2.93e5	13485
32	Lcp65Ae	SID104191004	2.27e5	2.21e5	2.30e5	2.33e5	10230
33	CG5860	SID104195688	2.35e5	2.05e5	2.36e5	1.88e5	22560
34	enc	SID104188508	1.19e5	1.26e5	1.96e5	1.81e5	7250
35	TyrRS	SID104190222	46505	43565	35490	52295	3645
36	Obp56e	SID104186980	83435	78355	1.19e5	81785	9550
37	asp	SID104196695	99590	1.22e5	1.84e5	2.02e5	10210
38	CCKLR-17D1	SID104199802	88740	1.03e5	1.13e5	1.37e5	11245
39	CCKLR-17D1	SID104199803	73075	1.00e5	99975	1.09e5	12770
40	CCKLR-17D1	SID104199804	86375	95710	1.03e5	87770	10505
41	TTLL3A	SID104181935	1.35e5	1.21e5	1.92e5	1.63e5	9330
42	CG3199	SID104195259	3.16e5	2.73e5	2.38e5	2.85e5	22370
43	Iris	SID104180455	2.19e5	2.09e5	2.58e5	2.46e5	16615
44	CG14369	SID104194623	2.41e5	2.31e5	2.19e5	2.27e5	18055
45	FoxK	SID104189651	64090	63655	41775	11720	9365
46	CG10993	SID104199154	53275	57825	64315	66205	6770
47	KFase	SID104183050	1.93e5	1.26e5	1.94e5	1.62e5	10750
48	Eig71Eh	SID104190947	74080	71565	71575	71865	4150
49	CG9356	SID104196268	1.59e5	1.30e5	92120	92385	11035
50	CG7299	SID104182835	1.91e5	2.19e5	1.27e5	1.85e5	24770
